# Measurements from the supplement of paper PMC10849652.
# Sequences of proteins named here, by UniProt entry; tags and fusion partners are left off. A change or cut given only in a name is not applied to a line headed by its entry.
# UniProt O95816: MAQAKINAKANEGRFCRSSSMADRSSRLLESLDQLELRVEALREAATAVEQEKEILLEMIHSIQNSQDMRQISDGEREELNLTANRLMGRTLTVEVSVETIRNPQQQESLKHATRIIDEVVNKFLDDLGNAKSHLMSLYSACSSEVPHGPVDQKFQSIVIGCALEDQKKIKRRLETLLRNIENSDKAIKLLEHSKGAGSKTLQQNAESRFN
# UniProt O95429: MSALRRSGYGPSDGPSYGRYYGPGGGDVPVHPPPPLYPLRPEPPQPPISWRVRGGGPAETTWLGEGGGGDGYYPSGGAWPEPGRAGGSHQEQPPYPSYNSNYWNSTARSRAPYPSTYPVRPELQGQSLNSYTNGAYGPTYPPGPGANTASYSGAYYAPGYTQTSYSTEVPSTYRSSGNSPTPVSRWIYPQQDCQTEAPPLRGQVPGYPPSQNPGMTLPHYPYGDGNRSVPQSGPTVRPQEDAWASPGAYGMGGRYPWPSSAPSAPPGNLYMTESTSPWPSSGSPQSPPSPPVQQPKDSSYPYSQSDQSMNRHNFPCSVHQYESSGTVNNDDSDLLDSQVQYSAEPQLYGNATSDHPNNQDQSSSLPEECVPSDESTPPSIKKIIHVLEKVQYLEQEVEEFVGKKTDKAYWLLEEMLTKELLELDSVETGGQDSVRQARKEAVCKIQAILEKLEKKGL
# UniProt Q9UL15: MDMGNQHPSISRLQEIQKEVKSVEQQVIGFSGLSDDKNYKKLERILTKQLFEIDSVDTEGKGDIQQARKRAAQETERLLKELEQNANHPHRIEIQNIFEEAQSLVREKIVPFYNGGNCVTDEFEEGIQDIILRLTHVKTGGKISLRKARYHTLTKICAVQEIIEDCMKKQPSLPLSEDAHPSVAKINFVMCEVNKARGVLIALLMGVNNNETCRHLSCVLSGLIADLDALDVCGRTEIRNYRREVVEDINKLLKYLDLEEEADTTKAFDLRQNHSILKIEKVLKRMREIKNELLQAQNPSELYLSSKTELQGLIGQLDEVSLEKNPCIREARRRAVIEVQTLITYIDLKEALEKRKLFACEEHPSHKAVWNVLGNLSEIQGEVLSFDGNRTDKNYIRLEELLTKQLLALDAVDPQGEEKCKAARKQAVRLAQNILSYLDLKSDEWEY
# UniProt O15392, whole entry, looked up: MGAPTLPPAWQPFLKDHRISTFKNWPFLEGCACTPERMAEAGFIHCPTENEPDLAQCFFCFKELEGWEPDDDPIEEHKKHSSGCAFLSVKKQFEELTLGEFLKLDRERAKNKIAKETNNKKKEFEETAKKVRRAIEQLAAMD
# UniProt Q00973: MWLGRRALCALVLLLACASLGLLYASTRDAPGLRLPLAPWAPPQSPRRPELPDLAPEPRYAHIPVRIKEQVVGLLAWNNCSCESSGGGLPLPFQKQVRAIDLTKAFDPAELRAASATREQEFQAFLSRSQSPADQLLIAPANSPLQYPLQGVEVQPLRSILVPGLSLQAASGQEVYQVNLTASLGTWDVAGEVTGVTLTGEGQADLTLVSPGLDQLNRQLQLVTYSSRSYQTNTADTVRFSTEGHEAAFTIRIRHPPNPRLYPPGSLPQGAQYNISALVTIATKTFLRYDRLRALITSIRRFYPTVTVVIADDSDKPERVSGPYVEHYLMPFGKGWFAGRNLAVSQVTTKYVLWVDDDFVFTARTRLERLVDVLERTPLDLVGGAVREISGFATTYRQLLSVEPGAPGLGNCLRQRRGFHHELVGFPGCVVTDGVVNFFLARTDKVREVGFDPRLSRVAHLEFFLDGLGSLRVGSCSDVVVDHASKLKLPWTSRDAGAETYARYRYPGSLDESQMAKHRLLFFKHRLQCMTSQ
# UniProt Q8WUW1: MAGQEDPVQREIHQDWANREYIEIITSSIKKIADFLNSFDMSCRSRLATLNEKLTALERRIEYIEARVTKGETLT
# UniProt P54132: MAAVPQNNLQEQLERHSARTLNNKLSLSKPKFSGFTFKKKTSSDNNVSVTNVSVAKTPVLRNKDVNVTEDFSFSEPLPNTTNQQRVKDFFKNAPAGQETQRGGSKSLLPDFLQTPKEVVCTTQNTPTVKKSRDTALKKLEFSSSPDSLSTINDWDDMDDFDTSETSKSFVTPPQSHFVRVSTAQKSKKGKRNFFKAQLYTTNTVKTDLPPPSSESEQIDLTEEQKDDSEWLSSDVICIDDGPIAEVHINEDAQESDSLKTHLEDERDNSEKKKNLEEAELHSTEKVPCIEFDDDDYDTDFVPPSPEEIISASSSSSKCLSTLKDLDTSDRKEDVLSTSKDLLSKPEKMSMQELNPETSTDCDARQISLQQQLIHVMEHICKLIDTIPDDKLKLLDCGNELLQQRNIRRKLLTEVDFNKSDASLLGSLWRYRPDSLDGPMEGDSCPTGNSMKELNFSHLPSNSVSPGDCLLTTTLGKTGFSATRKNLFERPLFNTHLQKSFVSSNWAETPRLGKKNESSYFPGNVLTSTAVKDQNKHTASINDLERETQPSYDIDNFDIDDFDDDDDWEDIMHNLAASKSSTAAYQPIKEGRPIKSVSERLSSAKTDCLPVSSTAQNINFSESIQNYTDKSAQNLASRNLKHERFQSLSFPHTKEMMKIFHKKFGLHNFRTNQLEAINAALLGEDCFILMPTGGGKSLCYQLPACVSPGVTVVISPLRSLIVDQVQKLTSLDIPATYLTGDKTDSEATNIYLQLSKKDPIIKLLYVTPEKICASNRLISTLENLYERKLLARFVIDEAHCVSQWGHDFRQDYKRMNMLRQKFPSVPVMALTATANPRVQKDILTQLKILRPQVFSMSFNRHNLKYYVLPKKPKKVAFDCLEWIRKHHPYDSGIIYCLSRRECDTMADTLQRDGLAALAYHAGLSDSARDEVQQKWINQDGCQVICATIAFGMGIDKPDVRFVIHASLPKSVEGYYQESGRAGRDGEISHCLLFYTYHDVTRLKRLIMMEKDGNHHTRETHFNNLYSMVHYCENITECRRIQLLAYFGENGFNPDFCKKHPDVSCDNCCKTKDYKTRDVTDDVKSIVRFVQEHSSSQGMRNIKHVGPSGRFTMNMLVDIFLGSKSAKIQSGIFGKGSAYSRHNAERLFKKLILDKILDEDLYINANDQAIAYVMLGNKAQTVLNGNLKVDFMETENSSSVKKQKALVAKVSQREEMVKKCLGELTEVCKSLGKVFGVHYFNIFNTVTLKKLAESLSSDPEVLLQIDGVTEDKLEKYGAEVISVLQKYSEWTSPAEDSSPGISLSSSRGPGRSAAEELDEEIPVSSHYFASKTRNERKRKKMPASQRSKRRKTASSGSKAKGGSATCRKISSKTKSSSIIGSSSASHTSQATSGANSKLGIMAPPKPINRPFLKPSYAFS
# UniProt Q9NSY1, whole entry, looked up: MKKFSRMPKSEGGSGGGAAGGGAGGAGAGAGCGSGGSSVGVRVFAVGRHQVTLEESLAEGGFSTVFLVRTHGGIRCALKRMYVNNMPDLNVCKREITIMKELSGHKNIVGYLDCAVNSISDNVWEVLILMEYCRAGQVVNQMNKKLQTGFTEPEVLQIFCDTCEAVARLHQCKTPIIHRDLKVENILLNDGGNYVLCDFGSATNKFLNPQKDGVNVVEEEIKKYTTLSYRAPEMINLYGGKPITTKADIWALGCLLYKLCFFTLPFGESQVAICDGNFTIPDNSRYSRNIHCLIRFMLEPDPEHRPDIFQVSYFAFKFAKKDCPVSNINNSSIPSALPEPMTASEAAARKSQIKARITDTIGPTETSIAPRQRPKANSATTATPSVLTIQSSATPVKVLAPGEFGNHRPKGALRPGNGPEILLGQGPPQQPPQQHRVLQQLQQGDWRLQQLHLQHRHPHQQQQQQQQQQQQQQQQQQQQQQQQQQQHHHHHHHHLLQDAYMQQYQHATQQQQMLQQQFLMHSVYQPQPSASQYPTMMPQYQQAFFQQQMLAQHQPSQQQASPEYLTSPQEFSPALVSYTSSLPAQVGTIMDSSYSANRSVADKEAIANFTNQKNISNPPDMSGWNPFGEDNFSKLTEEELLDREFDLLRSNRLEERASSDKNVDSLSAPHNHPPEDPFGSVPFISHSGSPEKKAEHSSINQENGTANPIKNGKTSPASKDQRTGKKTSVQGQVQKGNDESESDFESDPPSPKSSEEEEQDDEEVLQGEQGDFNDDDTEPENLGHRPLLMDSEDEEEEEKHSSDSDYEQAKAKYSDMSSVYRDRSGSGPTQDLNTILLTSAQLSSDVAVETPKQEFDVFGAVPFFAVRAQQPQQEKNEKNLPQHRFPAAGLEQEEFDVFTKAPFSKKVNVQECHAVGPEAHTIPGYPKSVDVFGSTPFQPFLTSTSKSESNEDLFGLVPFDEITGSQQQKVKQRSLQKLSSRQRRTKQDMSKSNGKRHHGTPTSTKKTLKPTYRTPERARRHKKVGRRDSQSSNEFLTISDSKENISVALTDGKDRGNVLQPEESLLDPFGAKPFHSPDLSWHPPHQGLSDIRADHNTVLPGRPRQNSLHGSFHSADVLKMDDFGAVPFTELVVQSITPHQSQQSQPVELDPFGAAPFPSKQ
# UniProt Q6PGQ7, whole entry, looked up: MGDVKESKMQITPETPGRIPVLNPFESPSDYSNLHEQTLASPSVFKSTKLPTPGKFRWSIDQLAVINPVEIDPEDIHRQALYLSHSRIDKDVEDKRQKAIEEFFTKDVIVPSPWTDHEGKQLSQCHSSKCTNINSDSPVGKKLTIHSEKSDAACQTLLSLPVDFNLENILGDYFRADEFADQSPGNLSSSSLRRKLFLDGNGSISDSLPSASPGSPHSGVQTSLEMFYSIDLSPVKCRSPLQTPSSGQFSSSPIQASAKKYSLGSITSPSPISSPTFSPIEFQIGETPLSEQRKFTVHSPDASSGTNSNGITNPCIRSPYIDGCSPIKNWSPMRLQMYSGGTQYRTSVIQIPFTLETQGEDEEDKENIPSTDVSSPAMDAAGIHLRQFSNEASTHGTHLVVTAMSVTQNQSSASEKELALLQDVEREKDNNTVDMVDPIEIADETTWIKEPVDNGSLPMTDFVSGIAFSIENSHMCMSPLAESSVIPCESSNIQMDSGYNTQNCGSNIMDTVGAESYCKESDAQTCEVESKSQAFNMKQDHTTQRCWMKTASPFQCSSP
# UniProt Q86WA6: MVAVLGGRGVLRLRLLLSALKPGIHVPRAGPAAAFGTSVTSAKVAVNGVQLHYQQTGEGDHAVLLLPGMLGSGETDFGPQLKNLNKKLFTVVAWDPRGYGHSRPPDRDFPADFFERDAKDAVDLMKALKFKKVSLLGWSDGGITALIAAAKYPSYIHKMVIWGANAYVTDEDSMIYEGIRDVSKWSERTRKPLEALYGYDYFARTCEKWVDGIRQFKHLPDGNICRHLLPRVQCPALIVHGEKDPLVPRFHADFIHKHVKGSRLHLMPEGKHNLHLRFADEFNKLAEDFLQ
# UniProt Q14137: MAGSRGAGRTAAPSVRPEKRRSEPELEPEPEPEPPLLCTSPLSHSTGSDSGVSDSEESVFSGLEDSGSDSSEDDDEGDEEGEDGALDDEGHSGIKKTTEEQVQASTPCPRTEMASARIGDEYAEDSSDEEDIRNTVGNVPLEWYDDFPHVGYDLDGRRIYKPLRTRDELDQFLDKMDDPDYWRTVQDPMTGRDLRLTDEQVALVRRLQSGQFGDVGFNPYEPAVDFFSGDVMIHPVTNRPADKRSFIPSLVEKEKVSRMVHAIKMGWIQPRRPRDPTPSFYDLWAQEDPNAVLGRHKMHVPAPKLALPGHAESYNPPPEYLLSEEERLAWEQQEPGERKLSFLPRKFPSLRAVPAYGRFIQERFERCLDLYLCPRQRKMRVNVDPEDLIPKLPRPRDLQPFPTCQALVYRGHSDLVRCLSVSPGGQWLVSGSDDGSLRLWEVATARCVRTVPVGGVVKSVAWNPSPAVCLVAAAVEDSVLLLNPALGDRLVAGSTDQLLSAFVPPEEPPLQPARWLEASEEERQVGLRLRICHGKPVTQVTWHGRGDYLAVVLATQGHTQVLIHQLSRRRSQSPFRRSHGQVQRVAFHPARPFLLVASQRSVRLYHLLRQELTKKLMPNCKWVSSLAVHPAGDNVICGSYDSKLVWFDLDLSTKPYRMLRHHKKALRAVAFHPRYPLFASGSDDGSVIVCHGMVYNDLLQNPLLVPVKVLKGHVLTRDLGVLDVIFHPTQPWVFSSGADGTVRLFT
# UniProt Q9NYM9: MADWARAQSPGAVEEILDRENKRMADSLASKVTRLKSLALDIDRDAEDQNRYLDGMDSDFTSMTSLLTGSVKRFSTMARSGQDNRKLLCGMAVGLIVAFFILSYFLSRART
# UniProt Q6QNY0: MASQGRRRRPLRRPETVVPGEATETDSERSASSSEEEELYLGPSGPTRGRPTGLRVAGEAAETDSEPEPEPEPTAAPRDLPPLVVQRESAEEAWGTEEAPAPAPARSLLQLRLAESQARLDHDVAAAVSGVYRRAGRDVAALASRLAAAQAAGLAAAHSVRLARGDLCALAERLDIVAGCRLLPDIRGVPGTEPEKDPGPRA
# UniProt Q6UW56: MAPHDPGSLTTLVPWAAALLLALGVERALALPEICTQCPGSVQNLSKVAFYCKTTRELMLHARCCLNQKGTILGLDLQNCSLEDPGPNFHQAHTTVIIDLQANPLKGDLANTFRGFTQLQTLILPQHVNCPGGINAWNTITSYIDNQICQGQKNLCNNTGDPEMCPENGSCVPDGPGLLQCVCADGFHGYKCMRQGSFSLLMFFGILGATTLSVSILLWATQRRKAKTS
# The other results are listed elsewhere or left out.
# How the values were obtained:
# Assay in all cases: log2 fold change, soluble protein after heating vs DMSO (PISA); higher = thermal stabilisation; K562 cells, 10 uM, 30 min; active = over 0.2 and 3.5 SD of the protein, either way, in both replicates (recomputed)
# [1] = compound: CS(=O)(=O)c1ccc(-c2cnc(N)c(C(=O)Nc3ccccc3)n2)cc1
# Outline: (§1)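 K562 cells at 2×10^6 cells/mL were treated for 30 min with 10 μM compound, and aliquots were heated for 3 min over 48°C-58°C before pooling. Extraction used PBS with 0.5% NP-40 at 4°C, and soluble protein was the supernatant after 21,000xg for 90 min, measured by TMTpro 16plex LC-MS/MS with channel sums equalised. Thermal stability values, relative to control samples and from duplicates, are log2 fold changes.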
# crizotinib = compound: C[C@@H](Oc1cc(-c2cnn(C3CCNCC3)c2)cnc1N)c1c(Cl)ccc(F)c1Cl [crizotinib]
# Outline: as §1
# [2] = compound: C[C@@H]1COCCN1C2=NC(=NC(=C2)C3(CC3)S(=O)(=O)C)C4=C5C=CNC5=CC=C4
# Outline: as §1
# [3] = compound: C[C@H](C1=CC=C(C=C1)C(=O)NC2=C3C=CNC3=NC=C2)N
# Outline: as §1
# duvelisib = compound: C[C@H](Nc1ncnc2nc[nH]c12)c1cc2cccc(Cl)c2c(=O)n1-c1ccccc1 [duvelisib]
# Outline: as §1
# gandotinib = compound: Cc1cc(Nc2cc(CN3CCOCC3)c3nc(C)c(Cc4ccc(Cl)cc4F)n3n2)n[nH]1 [gandotinib]
# Outline: as §1
# tozasertib = compound: Cc1cc(Nc2cc(N3CCN(C)CC3)nc(Sc3ccc(NC(=O)C4CC4)cc3)n2)n[nH]1 [tozasertib]
# Outline: as §1
# [4] = compound: Cc1cc(SCc2sc(-c3ccc(C(F)(F)F)cc3)nc2C)ccc1OCC(=O)O
# Outline: as §1
# doramapimod = compound: Cc1ccc(-n2nc(C(C)(C)C)cc2NC(=O)Nc2ccc(OCCN3CCOCC3)c3ccccc23)cc1 [doramapimod]
# Outline: as §1
# ispinesib = compound: Cc1ccc(C(=O)N(CCCN)[C@@H](c2nc3cc(Cl)ccc3c(=O)n2Cc2ccccc2)C(C)C)cc1 [ispinesib]
# Outline: as §1
Target,log2 fold change [1],log2 fold change (crizotinib),log2 fold change [2],log2 fold change [3],log2 fold change (duvelisib),log2 fold change (gandotinib),log2 fold change (tozasertib),log2 fold change [4],log2 fold change (doramapimod),log2 fold change (ispinesib)
BAG2 (UniProt O95816),inactive: -0.055,inactive: 0.05,inactive: -0.27,inactive: 0.255,inactive: -0.166,inactive: 0.03,inactive: 0.087,inactive: -0.025,inactive: 0.21,inactive: -0.154
BAG4 (UniProt O95429),inactive: 0.056,inactive: -0.01,inactive: 0.103,inactive: -0.105,inactive: 0.058,inactive: -0.056,inactive: 0,inactive: 0.027,inactive: 0,inactive: -0.007
B3GNT5 (UniProt Q9BYG0),inactive: 0.031,inactive: -0.029,inactive: 0.133,inactive: -0.28,inactive: -0.048,–,–,inactive: -0.115,inactive: -0.038,–
BAG5 isoform 2 (UniProt Q9UL15),inactive: 0.032,inactive: -0.036,inactive: -0.018,inactive: -0.046,–,inactive: -0.07,inactive: 0.055,–,inactive: 0.015,inactive: -0.06
ATXN10 (UniProt Q9UBB4),inactive: 0.014,inactive: -0.022,inactive: 0.061,inactive: -0.063,inactive: -0.006,inactive: -0.023,inactive: -0.004,inactive: 0.005,inactive: -0.074,inactive: 0.078
BRI3BP (UniProt Q8WY22),inactive: 0.023,inactive: -0.111,inactive: -0.089,inactive: 0.024,inactive: 0.038,–,inactive: -0.023,inactive: 0.046,inactive: 0.015,inactive: -0.012
BPGM (UniProt P07738),inactive: 0.065,inactive: 0.06,inactive: 0.025,inactive: -0.047,inactive: 0.042,inactive: 0.027,inactive: 0.003,inactive: -0.054,inactive: -0.011,inactive: 0.064
BCAP29 isoform 2 (UniProt Q9UHQ4),inactive: -0.015,inactive: -0.028,inactive: 0.061,inactive: -0.005,–,inactive: 0.037,–,inactive: -0.079,inactive: -0.024,active: -0.245
BIRC5 (UniProt O15392),inactive: 0.064,inactive: 0.101,inactive: -0.047,inactive: -0.071,inactive: 0.05,–,inactive: -0.082,inactive: -0.087,inactive: 0.034,inactive: -0.019
BICD1 (UniProt Q96G01),inactive: -0.061,inactive: 0.076,inactive: -0.138,inactive: -0.01,inactive: 0.137,inactive: 0.105,inactive: 0.116,inactive: 0.059,inactive: 0.055,inactive: -0.213
B4GALNT1 (UniProt Q00973),inactive: 0.198,inactive: 0.014,inactive: -0.003,inactive: -0.019,–,inactive: -0.077,–,inactive: 0.12,inactive: 0.065,inactive: -0.077
BCL9L (UniProt Q86UU0),inactive: 0.029,inactive: 0.085,inactive: 0.018,inactive: -0.002,–,inactive: 0.097,–,inactive: -0.112,inactive: 0.006,inactive: 0.025
B4GALT1 (UniProt P15291),inactive: -0.007,active: -0.479,inactive: -0.031,inactive: -0.124,–,inactive: 0.161,–,inactive: 0.049,inactive: 0.071,inactive: -0.066
BRK1 isoform 2 (UniProt Q8WUW1),inactive: -0.004,inactive: 0.029,inactive: 0.11,inactive: -0.276,–,inactive: -0.024,–,inactive: -0.035,inactive: -0.041,inactive: 0.18
BLM (UniProt P54132),inactive: 0.041,inactive: -0.1,–,inactive: -0.101,inactive: -0.028,–,inactive: -0.035,inactive: 0.074,inactive: 0.163,inactive: -0.054
B2M (UniProt P61769),inactive: -0.019,–,inactive: 0.095,inactive: 0,inactive: 0.052,inactive: 0.072,inactive: 0.183,inactive: 0.063,–,inactive: 0.125
BRAF (UniProt P15056),inactive: 0.006,inactive: 0.023,inactive: 0.034,inactive: -0.072,–,inactive: -0.013,–,inactive: -0.014,–,inactive: -0.024
BCL2L11 (UniProt O43521),inactive: 0.017,–,inactive: 0.157,inactive: -0.045,inactive: -0.008,inactive: 0.191,inactive: -0.134,inactive: 0.013,–,inactive: 0.1
BCLAF1 (UniProt Q9NYF8),inactive: -0.002,inactive: -0.06,inactive: 0.089,active: -0.438,–,inactive: -0.021,–,inactive: -0.01,inactive: 0.035,inactive: 0.164

Target,log2 fold change [1],log2 fold change (crizotinib),log2 fold change [2],log2 fold change [3],log2 fold change (duvelisib),log2 fold change (gandotinib),log2 fold change (tozasertib),log2 fold change [4],log2 fold change (doramapimod),log2 fold change (ispinesib)
BMP2K (UniProt Q9NSY1),inactive: 0.136,active: 0.411,inactive: 0,active: 0.402,–,inactive: 0.319,–,inactive: -0.051,inactive: 0.024,inactive: -0.017
BRD3 (UniProt Q15059),inactive: 0.117,inactive: 0.109,–,inactive: -0.02,–,inactive: -0.081,–,inactive: -0.037,inactive: -0.083,inactive: -0.03
BAP1 (UniProt Q92560),inactive: 0.07,inactive: -0.078,inactive: 0,inactive: 0.126,–,inactive: 0.076,–,inactive: 0.085,inactive: 0.112,inactive: -0.043
BORA (UniProt Q6PGQ7),inactive: 0.149,–,inactive: 0.073,–,–,–,–,–,–,–
BPHL (UniProt Q86WA6),inactive: 0.02,inactive: -0.036,inactive: 0.008,inactive: -0.059,–,inactive: 0.05,–,inactive: -0.01,inactive: 0.004,inactive: 0.01
AURKAIP1 (UniProt Q9NWT8),inactive: 0.09,–,inactive: -0.156,inactive: 0.456,inactive: -0.176,–,inactive: 0.041,inactive: -0.015,–,inactive: -0.262
ATR (UniProt Q13535),inactive: 0.063,inactive: -0.021,–,inactive: 0.022,–,inactive: -0.09,–,inactive: 0.026,inactive: -0.123,inactive: 0.004
BPTF (UniProt Q12830),inactive: -0.24,inactive: 0.122,inactive: -0.12,–,inactive: -0.004,–,–,inactive: 0.178,inactive: 0.274,–
BCAS1 (UniProt O75363),inactive: -0.079,–,inactive: -0.087,inactive: -0.136,inactive: 0.03,inactive: 0.042,inactive: -0.06,inactive: -0.032,–,inactive: -0.034
BOP1 (UniProt Q14137),inactive: -0.008,inactive: 0.11,inactive: -0.153,inactive: 0.064,–,inactive: 0.025,–,inactive: 0.134,inactive: -0.008,inactive: -0.114
BET1L (UniProt Q9NYM9),inactive: -0.066,–,inactive: -0.043,inactive: -0.316,inactive: 0.047,–,inactive: 0.071,inactive: 0.075,–,inactive: 0.066
BDH2 (UniProt Q9BUT1),inactive: 0.035,inactive: 0.243,–,inactive: -0.215,–,inactive: 0.011,–,inactive: 0.067,inactive: -0.053,inactive: 0.053
BLOC1S3 (UniProt Q6QNY0),inactive: -0.001,inactive: 0.014,inactive: 0.116,inactive: 0.065,–,inactive: -0.132,–,inactive: -0.052,inactive: -0.038,inactive: 0.012
BID isoform 2 (UniProt P55957),inactive: 0.047,inactive: 0.087,active: 0.409,inactive: -0.019,–,inactive: -0.012,–,inactive: -0.003,inactive: -0.013,inactive: 0.022
BAIAP2 (UniProt Q9UQB8),inactive: 0.023,inactive: -0.115,inactive: 0,inactive: -0.039,–,inactive: -0.053,–,inactive: 0.08,inactive: 0.086,inactive: -0.057
BAZ1B (UniProt Q9UIG0),inactive: -0.153,inactive: -0.207,–,inactive: 0.107,–,inactive: -0.119,–,–,inactive: 0.004,–
ATRAID isoform 3 (UniProt Q6UW56),inactive: 0.022,inactive: 0.059,–,inactive: -0.026,inactive: 0.009,inactive: -0.062,inactive: 0.048,inactive: -0.02,inactive: 0.026,inactive: -0.016
BRIP1 (UniProt Q9BX63),inactive: 0.13,inactive: 0.019,inactive: 0.151,inactive: -0.005,–,inactive: -0.035,–,inactive: 0.009,inactive: -0.088,inactive: 0.018
B3GALNT2 (UniProt Q8NCR0),inactive: 0.144,inactive: -0.022,inactive: 0.048,–,–,inactive: 0.071,inactive: -0.377,–,inactive: -0.064,inactive: -0.076

# Copied from the list.
# Under log2 fold change [4], BRIP1 (UniProt Q9BX63) has inactive: 0.009
# Under log2 fold change (crizotinib), ATR (UniProt Q13535) has inactive: -0.021

# Copied from above for reference:
Target,log2 fold change [1],log2 fold change (crizotinib),log2 fold change [2],log2 fold change [3],log2 fold change (duvelisib),log2 fold change (gandotinib),log2 fold change (tozasertib),log2 fold change [4],log2 fold change (doramapimod),log2 fold change (ispinesib)
BLOC1S3 (UniProt Q6QNY0),inactive: -0.001,inactive: 0.014,inactive: 0.116,inactive: 0.065,–,inactive: -0.132,–,inactive: -0.052,inactive: -0.038,inactive: 0.012
BID isoform 2 (UniProt P55957),inactive: 0.047,inactive: 0.087,active: 0.409,inactive: -0.019,–,inactive: -0.012,–,inactive: -0.003,inactive: -0.013,inactive: 0.022
